Taken from: PubChem BioAssay AID720505 (Drosophila RNAi Screening Center, 2013)
Aim: 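Fly regulators or components of the CRAC channel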 (primary screen). System: Drosophila S2R+ cells. Reagents: long dsRNA against Drosophila genes. Challenge: thapsigargin (2 µM) in calcium-free buffer to empty internal stores, then 2 mM calcium added back. Read-out: 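Fluo-4 signal in 384-well plates read on a FLIPR after thapsigargin (2 µM, calcium-free) store depletion and 2 mM calcium add-back; unnormalised mean endpoint per well; screen run twice, selected wells retested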. Scale: calcium signal and retest calcium signal: higher = more calcium entry after store depletion. Hit rule: 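About 1500 genes called as lowering calcium entry, by varying amounts, judged against per-plate control wells with STIM1 as positive and Rho1 as negative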. Meaning of the calls: active = called as lowering calcium entry; inactive = not called.
In all, the deposit lists about 20,000 reagents; below is an unselected part of those with a known target gene and a result. Of all reagents, about 2,100 (10%) got an active call. 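Raw plate signals without normalisation; calls rest on control-based scores that were not deposited; replicate 2 separates called from uncalled poorly.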 Reagents against one gene are numbered here. Not stated in the record: the amount of reagent, the time to read-out.

target gene	reagent	calcium signal, replicate 1	calcium signal, replicate 2	retest calcium signal, replicate 1	retest calcium signal, replicate 2	call
retinin	1	71.6	179			inactive
CG14054	1	99.2	113			inactive
CG32679	1					inactive
CG10359	1	99.6	138			inactive
CG6283	1	138	137			inactive
TotX	1	80.1	272			inactive
CG13308	1	107	72.9			inactive
mRpS33	1	109	162			inactive
kl-3 (retired record)	1	82	11410			inactive
kl-3 (retired record)	2	205	95.8			inactive
kl-3 (retired record)	3	138	10219			inactive
CG4497	1	97.6	132			inactive
CG14107	1	98.8	85.7			inactive
epsilonTry	1	137	215			inactive

5 entries from above, reduced to “calcium signal, replicate 1”.
kl-3 (retired record) #2 = 205
kl-3 (retired record) #3 = 138
CG4497 = 97.6
CG14107 = 98.8
epsilonTry = 137

Next reagents follow:
target gene	reagent	calcium signal, replicate 1	calcium signal, replicate 2	retest calcium signal, replicate 1	retest calcium signal, replicate 2	call
Gart	1	164	113			inactive
cnn	1	74.3	132			inactive
cnn	2	170	163			inactive
SpdS	1	173	119			inactive
tey	1	93.5	150	8674	142	inactive
tey	2	143	74			inactive
CG10344	1	105	154			inactive
CG4338	1	109	104			inactive
Hmgs	1	159	132			inactive
Nph	1	176	119			inactive
Cyp6a21	1	87.8	174			inactive
blp	1	155	200			inactive
TwdlT	1	153	133			inactive
TwdlT	2	166	121			inactive
CG7236	1	123	111			inactive
CG10013	1	111	167			inactive
CalpC	1	100	152			inactive
CG5781	1	105	90.2			inactive
CG1924	1	79.7	94			inactive
Jhe	1	122	141			inactive
